The values below come from patent US20220119824A1.

Sequences of proteins named here, by UniProt entry; tags and fusion partners are left off. Residues count along the entry.
UniProt Q9NYJ7, residues 27-479: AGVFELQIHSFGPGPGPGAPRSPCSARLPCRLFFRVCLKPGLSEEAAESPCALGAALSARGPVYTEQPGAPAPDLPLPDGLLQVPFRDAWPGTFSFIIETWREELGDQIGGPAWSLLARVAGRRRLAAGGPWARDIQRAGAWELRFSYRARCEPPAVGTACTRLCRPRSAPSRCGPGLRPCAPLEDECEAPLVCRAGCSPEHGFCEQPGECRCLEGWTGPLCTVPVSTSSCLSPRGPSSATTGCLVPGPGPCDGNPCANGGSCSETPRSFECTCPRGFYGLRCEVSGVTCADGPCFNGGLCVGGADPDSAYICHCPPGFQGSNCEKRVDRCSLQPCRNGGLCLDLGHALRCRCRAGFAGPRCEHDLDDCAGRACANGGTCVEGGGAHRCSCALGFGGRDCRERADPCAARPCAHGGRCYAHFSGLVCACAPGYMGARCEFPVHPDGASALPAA

These are yes or no findings as the source states them, for the method shown. Some results given as binding are weak or reduced against the parent protein; the word gives no strength.

Experiment [1] deals with Human DLL3 (R&D Systems) (human) (UniProt Q9NYJ7). Nature of the experiment: bridging ELISA for binding to DLL3 and CD3 in the same assay, HEK293T supernatant and purified BiTE. Background: In an ELISA, binding on a coated surface is turned into a signal by an enzyme label.
For experiment [2] the target is unchanged. Nature of the experiment: bridging ELISA for binding to DLL3 and CD3 in the same assay, HEK293T supernatants.

B1: SC16.34 DLL3LH×CD3HL BiTE (bispecific antibody)
chain: SIVMTQTPKFLLVSAGDRVTITCKASQSVSNDVAWYQQKPGQSPKLLIYYASNRYSGVPDRFTGSGYGTDFTFTISTVQAEDLAVYFCQQDYSSPWTFGGGTKLEIKGGGGSGGGGSGGGGSQIQLVQSGPELKRPGETVKISCKASGYTFTNYGMNWVKQAPGKGLKWMGWINTYTGDPTYADDFKGRFAFSLETSASTAYLQINNLKNEDTATYFCARIGGNSPSDYWGQGTSLTVSSGGGGSEVQLVESGGGLVQPGKSLKLSCEASGFTFSGYGMHWVRQAPGRGLESVAYITSSSINIKYADAVKGRFTVSRDNAKNLLFLQMNILKSEDTAMYYCARFDWDKNYWGQGTMVTVSSGGGGSGGGGSGGGGSDIQMTQSPSSLPASLGDRVTINCQASQDISNYLNWYQQKPGKAPKLLIYYTNKLADGVPSRFSGSGSGRDSSFTISSLESEDIGSYYCQQYYNYPWTFGPGTKLEIKDYKDDDDK
As for B1, in experiment [1], the binding entry is listed as “binds”.

B2: SC16.34 DLL3HL×CD3HL BiTE (bispecific antibody)
chain: QIQLVQSGPELKRPGETVKISCKASGYTFTNYGMNWVKQAPGKGLKWMGWINTYTGDPTYADDFKGRFAFSLETSASTAYLQINNLKNEDTATYFCARIGGNSPSDYWGQGTSLTVSSGGGGSGGGGSGGGGSSIVMTQTPKFLLVSAGDRVTITCKASQSVSNDVAWYQQKPGQSPKLLIYYASNRYSGVPDRFTGSGYGTDFTFTISTVQAEDLAVYFCQQDYSSPWTFGGGTKLEIKGGGGSEVQLVESGGGLVQPGKSLKLSCEASGFTFSGYGMHWVRQAPGRGLESVAYITSSSINIKYADAVKGRFTVSRDNAKNLLFLQMNILKSEDTAMYYCARFDWDKNYWGQGTMVTVSSGGGGSGGGGSGGGGSDIQMTQSPSSLPASLGDRVTINCQASQDISNYLNWYQQKPGKAPKLLIYYTNKLADGVPSRFSGSGSGRDSSFTISSLESEDIGSYYCQQYYNYPWTFGPGTKLEIKDYKDDDDK
As to B2, the binding entry in experiment [2] is given as “binds”.
